Data: PubChem BioAssay AID588497 (NMMLSC, 2011)
Screen size: about 360,000 compounds; about 780 (0.22%) were called active. Inconclusive means that the source gave no clear call. Such entries were picked first, then a sample of the others. No stated cut-off is given here; in the data, active means inhibition above about 35% (passing the limit was not always enough); inconclusive means no clear call, values can overlap the other calls.

These compounds were tested on Botulinum neurotoxin type F light chain protease (Clostridium botulinum) (assay: BoNT/F light chain protease inhibitors, primary screen, biochemical, flow cytometry, MLPCN library (AID 588497; further: plate controls were buffer without enzyme for full effect and enzyme alone for no effect)). Settings: Multiplex microsphere protease cleavage assay, at 10 µM, active compounds read high.

SMILES | inhibition
CC(C)c1ccc(C(C(=O)NC(C)(C)C)N(C(=O)CNC(=O)c2ccco2)c2cccnc2)cc1 (configuration not stated) | inconclusive: -21.6%
O=C(Nc1ccccc1F)N1CCCC1c1cccnc1 (configuration not stated) | inconclusive: -46.8%
COc1ccccc1C(=O)NCCC(=O)N1CCN(c2ccccc2O)CC1 | inconclusive: -6%
Cc1cccc(C(=O)Nc2ccc(S(=O)(=O)N3CCOCC3)cc2)c1[N+](=O)[O-] | inconclusive: -11.6%
Cc1ccc(S(=O)(=O)N2CCCC(C(=O)NCCCN3CCCCC3C)C2)cc1 (configuration not stated) | inactive: 0.5%
CC(=NO)C1CCC2C3CCC4=CC(=NO)CCC4(C)C3C(O)CC12C (configuration not stated) | inactive: 2%
COc1ccc(/C=N/NC2=NS(=O)(=O)c3ccccc32)cc1OC(C)=O | inactive: -4.9%
Cc1nccc2c1[nH]c1ccccc12 | inconclusive: 3.1%
COc1ccc(CCNC(=O)C2CCN(S(=O)(=O)c3ccc(OC)cc3)CC2)cc1 | inconclusive: 15.9%
O=C(NC1CCCCCCC1)c1cccc(Cl)c1 | inconclusive: 11.6%
O=C(Cc1ccccc1)Nc1ccc(NC(=O)c2ccc(Br)cc2)cc1 | inconclusive: -33.8%
CCOC(=O)C1=C(C)N(CC(C)C)C(=O)/C1=C\c1cccs1 | inconclusive: -24.1%
CCOC(=O)c1cn2nc(Oc3ccc(OC)cc3)ccc2n1 | inconclusive: 127%
CCS(=O)(=O)Nc1ccc(C2=NN(C(=O)c3ccco3)C(c3cccc(F)c3)C2)cc1 (configuration not stated) | inactive: -4.8%
Cc1ccc(-n2sc3ccccc3c2=O)cc1S(=O)(=O)N1CCCCC1 | inactive: 10.5%
CC1=CN2C(=NC(=O)CC2(C)C(=O)N(CC(=O)NC2CCCC2)Cc2ccc(Cl)cc2)C=C1 (configuration not stated) | inactive: -5.2%
O=C(O)CN1C(=O)/C(=C\c2ccccc2OCc2ccccc2)SC1=S | inactive: -6.9%
Cc1cc(N2CCOCC2)nc2ccc(Cl)cc12 | inconclusive: -0.3%
Cc1nn(C)c(C)c1/C=C(/C(=O)C(C)(C)C)n1cncn1 | inconclusive: 27.5%
O=C(CCc1ccccc1)NCc1ccc(F)cc1 | inconclusive: -14.1%
CCN(CC)CCCNC(=O)c1nn(-c2cccc(OC)c2)c(=O)c2ccccc12 | inconclusive: 6.9%
CCOC(=O)N1CCC(N(CCN(C)C)C(=S)Nc2cc(Cl)cc(Cl)c2)CC1 | inactive: -3.4%
CCOC(=O)COn1c(-n2nc(C)cc2C)nc2ccccc2c1=O | inactive: 6.4%

In the list so far, these contain a Cl atom:
SMILES | inhibition
O=C(NC1CCCCCCC1)c1cccc(Cl)c1 | inconclusive: 11.6%
CC1=CN2C(=NC(=O)CC2(C)C(=O)N(CC(=O)NC2CCCC2)Cc2ccc(Cl)cc2)C=C1 (configuration not stated) | inactive: -5.2%
Cc1cc(N2CCOCC2)nc2ccc(Cl)cc12 | inconclusive: -0.3%
CCOC(=O)N1CCC(N(CCN(C)C)C(=S)Nc2cc(Cl)cc(Cl)c2)CC1 | inactive: -3.4%

Later entries.

SMILES | inhibition
Nc1c(C(=O)N/N=C/c2ccc([N+](=O)[O-])cc2)cnn1-c1ccccc1 | inconclusive: 3.7%
CC(=O)N(c1ccccc1)c1nc(/C=C/C(=O)Nc2c(C)cc(C)cc2C)cs1 | inactive: -6%
COc1ccc(C2(O)CCN(C(=O)NC3CCCCC3)CC2)cc1 | inactive: -4.6%
Cn1nnnc1SCC(=O)c1ccc2c(c1)OCCO2 | inactive: 6.2%
CCCCOc1ccc2ccccc2c1C=O | inconclusive: -9.5%
C=C(C)Cn1c(=O)c2c(nc3n2CCCN3CCc2ccccc2)n(C)c1=O | inactive: -2.9%
Cc1ccc(S(=O)(=O)N2CCOCC2)cc1C(=O)N1CC(C)OC(C)C1 (configuration not stated) | inconclusive: -5.3%
COc1ccccc1CNC(=O)COC(=O)c1cnccn1 | inactive: 4%
COc1cccc(OC)c1OCCCNC1CCCC1 | inconclusive: 1.6%
Cc1cccc(-n2nc([N+](=O)[O-])c(=NC3CCN(Cc4ccccc4)CC3)n2O)c1 | inactive: -6.9%
CCOC(=O)c1cc(-c2cccc(O)c2)oc1C | inactive: 0.6%
Cc1ccccc1OCCN1CCCC1 | inconclusive: 7.9%
COc1ccc(CCN(C)S(=O)(=O)c2cn(C)c(=O)n(C)c2=O)cc1OC | inactive: -7.4%
C=CCn1c(O)c(C=Nc2c(C)n(C)n(-c3ccccc3)c2=O)c(=O)[nH]c1=O | inconclusive: -38%
O=C(CN1C(=O)C(=O)N(C2CCCC2)C1=O)Nc1ccc(OC(F)F)cc1 | inactive: -5.3%
COc1ccc(S(=O)(=O)N2CC(=O)Nc3ccccc32)cc1Cl | inconclusive: 50.6%
COCc1cc(CN2CCN(CCc3ccccc3)C(CCO)C2)ccc1OC (configuration not stated) | inconclusive: 3.7%
CCCCOC(=O)C1=C(C)NC(=O)NC1c1ccc(N(C)C)cc1 (configuration not stated) | inconclusive: 30.4%
COC(=O)C1CCN(C(=O)CN(C)Cc2ccc(C(C)(C)C)cc2)CC1 | active: 36.1%
O=C(O)COc1ccc2c3c(c(=O)oc2c1)CCCC3 | inactive: 4.8%
O=S(=O)(c1ccccc1)C1(C2CC(c3ccccc3)=NO2)CC(O)C1 (configuration not stated) | inactive: -3.5%
O=C(Nc1cc(Cl)ccc1O)c1cc2n(n1)C(C(F)(F)F)CC(c1ccc3c(c1)OCO3)N2 (configuration not stated) | inconclusive: 21.5%
Cc1cnc(NC(=O)c2c(-c3ccccc3)noc2C)s1 | inactive: -8.4%

SMILES | inhibition
CC(C)C[C@H](NC(=O)Nc1ccc(Oc2ccccc2)cc1)C(=O)O | inactive: -5.3%
CC(=O)N/N=C/c1ccccc1OCCOc1cccc(C)c1 | inconclusive: -9.8%
CCOC(=O)C(C)n1cnc2c(nnn2Cc2ccc(C)cc2)c1=O (configuration not stated) | inactive: -0.1%
O=C(COC(=O)CC1SC(N2CCCC2)=NC1=O)Nc1c(F)c(F)c(F)c(F)c1F (configuration not stated) | inactive: 3.9%
O=C(Nc1cc(Cl)ccc1-n1cncn1)c1cc(F)cc(F)c1 | inconclusive: 3%
O=C(O)c1cccc(-c2ccc(/C=N/n3cnnc3)o2)c1 | inconclusive: -14.2%
Cc1ccc(-c2cnc(C(O)c3ccc(Cl)c(Cl)c3)[nH]2)cc1 (configuration not stated) | inactive: -3.1%
COC(=O)c1sc(C(C)(C)C)cc1CS(=O)(=O)c1ccc(Cl)cc1 | inconclusive: 49.7%
CCOc1ccc(C2C(C#N)=C(N)Oc3cc(O)ccc32)cc1OCC (configuration not stated) | inactive: 6.3%
Cn1ncc(Cl)c1C(=O)N/N=C/c1cccc(OC2CSC2)c1 | inactive: 0.2%
COc1cc2c(cc1OC)C(c1ccc(Cl)cc1)=NCC2 | inconclusive: -29.3%
O=Cc1ccc(OCC(=O)NC(=O)NC2CCCCC2)cc1 | inconclusive: 14.1%
COc1ccc(Nc2ccc(S(=O)(=O)N3CCCCC3)cc2[N+](=O)[O-])cc1Cl | inactive: -15%
O=c1c(C(c2ccc(F)cc2)c2c(O)nc3n(c2=O)CCCS3)c(O)nc2n1CCCS2 | inconclusive: 17%
COC(=O)Cn1c2c(c3cc(C)ccc31)CCCC2NC(C)c1ccccc1 (configuration not stated) | inconclusive: -0.9%
Cc1ccc(CNC(=O)C2CCC(=O)N(Cc3ccccc3F)C2)s1 (configuration not stated) | inactive: 4.9%
CCCCS(=O)(=O)N1CCC(C(=O)Oc2ccc(Cl)cc2)CC1 | inconclusive: -19.4%
c1ccc2c(c1)cnc1ccccc12 | inconclusive: -95.1%
CCc1noc(C)c1C(=O)Nc1cccc(S(=O)(=O)N(C)c2ccccc2)c1 | inconclusive: -0.5%
Cc1ccc(CN2CCN(Cc3ccc4cccc(F)c4n3)CC2CCO)cc1 (configuration not stated) | inconclusive: 6.5%
O=C(Nc1sc2c(c1C(=O)NCCCO)CCCC2)c1ccccc1 | inconclusive: 10.3%
Cc1nc(Cl)sc1C(=O)Nc1ccc(C(F)(F)F)cc1 | inconclusive: -7.8%
COc1ccc(NC(=O)Nc2c(C)noc2-c2ccccc2)cc1 | inconclusive: -70.4%

SMILES | inhibition
CCCCn1c(CN2C(=O)c3ccccc3C2=O)nc2ccccc2c1=O | inconclusive: 20.8%
Cn1c(=O)c2c(nc(N3CCNCC3)n2Cc2cccc3ccccc23)n(C)c1=O | inconclusive: -54%
COc1ccc2c(c1)c(C(=O)N/N=C/c1cn(C)c3ccccc13)c(C)n2C | inconclusive: -69.1%
c1cc[n+](CCCC[n+]2ccccc2)cc1 | inconclusive: -10.7%
NC(c1csc(Nc2cc(NCCCO)ncn2)n1)c1ccccc1Cl (configuration not stated) | inactive: -3.4%
CN(C)c1ccc(C(CNS(=O)(=O)c2ccc([N+](=O)[O-])cc2)N2CCCC2)cc1 (configuration not stated) | inconclusive: 16.6%
O=C(Nc1ccccc1C(=O)N1CCOCC1)C1CCCO1 (configuration not stated) | inactive: 6%
COC(=O)/C(=C/Nc1cccc2ccccc12)[N+](=O)[O-] | inactive: -10.7%
COc1cc(C)c(Cl)cc1S(=O)(=O)NCc1ccco1 | inconclusive: 4.2%
COc1ccccc1N1CCN(C(=O)CN(C)S(=O)(=O)c2cc(C)ccc2OC)CC1 | inactive: -3.3%
O=C1NC2(CCCCC2)Cc2ccccc21 | inactive: 0.4%
CC1(C)Cc2nc3oc4c(NCCCN5CCOCC5)ncnc4c3cc2CO1 | inconclusive: 6.4%
CC(=O)c1c(-c2ccc(Cl)cc2Cl)noc1C | inconclusive: 12.6%
O=C(NCc1ccc(Cl)nc1)c1csc([C@@H]2C[C@H](O)[C@@H](CO)O2)n1 | inactive: -1.4%
COCC(=O)Nc1nnc(CCc2ccccc2)s1 | inconclusive: 0.3%
Cc1cc(C)c2nc(NC(=O)c3ccc([N+](=O)[O-])o3)sc2c1 | inconclusive: -20.7%
CC1CN(C)CCC1OC(=O)c1ccccc1 (configuration not stated) | inconclusive: -6.9%
CCOC(=O)c1cc(-c2csc(-c3ccc(C(C)(C)C)cc3)n2)on1 | inconclusive: -7.5%
COc1cccc(/C=N/Nc2ccc(Cl)nn2)c1OC | inconclusive: 25%
CCCCCn1c(=O)c(C(=O)Nc2cc(C)ccn2)c(O)c2ccccc21 | inconclusive: -17.7%
O=C(COC(=O)/C=C/c1ccc(Cl)c(Cl)c1)NC1CC1 | inconclusive: -3%
CCCCOC(=O)n1c(=O)oc2ccccc21 | inactive: -15%
O=C(O)c1ccc(N2C(=O)CC(N3CCN(c4cccc(C(F)(F)F)c4)CC3)C2=O)cc1 (configuration not stated) | inconclusive: -12.4%

As entered above.
inhibition with O=C(O)c1cccc(-c2ccc(/C=N/n3cnnc3)o2)c1 reads inconclusive: -14.2%
inhibition with Cc1cccc(-n2nc([N+](=O)[O-])c(=NC3CCN(Cc4ccccc4)CC3)n2O)c1 reads inactive: -6.9%
